# Reference: PubChem BioAssay AID743266 (National Center for Advancing Translational Sciences (NCATS), 2014)
# Protein sequences, listed by entry. Tags and fused reporters are not part of them. Lines headed by an entry give the natural chain unless they say otherwise; changes in a name come on top.
# UniProt Q03431: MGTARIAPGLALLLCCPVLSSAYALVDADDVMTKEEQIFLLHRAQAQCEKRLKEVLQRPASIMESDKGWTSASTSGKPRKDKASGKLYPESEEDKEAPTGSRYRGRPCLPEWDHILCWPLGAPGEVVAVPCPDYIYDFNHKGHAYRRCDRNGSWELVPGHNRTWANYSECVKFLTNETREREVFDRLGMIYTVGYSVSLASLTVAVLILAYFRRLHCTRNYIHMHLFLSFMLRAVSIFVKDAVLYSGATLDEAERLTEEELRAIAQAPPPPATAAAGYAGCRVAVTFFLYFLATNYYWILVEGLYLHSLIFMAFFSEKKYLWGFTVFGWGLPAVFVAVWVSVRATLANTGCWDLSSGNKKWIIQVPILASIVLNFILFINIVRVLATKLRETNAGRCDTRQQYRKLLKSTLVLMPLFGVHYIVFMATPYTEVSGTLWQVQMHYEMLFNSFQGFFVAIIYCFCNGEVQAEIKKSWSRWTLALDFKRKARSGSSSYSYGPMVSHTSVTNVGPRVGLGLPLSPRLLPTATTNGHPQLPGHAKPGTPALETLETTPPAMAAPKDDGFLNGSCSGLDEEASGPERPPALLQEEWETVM
# About 310 (0.076%) of roughly 410,000 compounds were called active. The shares of active, inactive and inconclusive entries below differ from those in the screen. The call rests on the fitted dose curve; in most records, active means well fitted activation curve with a large enough effect; inconclusive means small, poorly fitted or top-dose-only effect, or another doubt; inactive means no such curve, though single readings can be large or run the other way. Where the call is inconclusive, the potency comes from a doubtful curve fit.
# Biological target: Parathyroid hormone/parathyroid hormone-related peptide receptor (Homo sapiens) (UniProt Q03431)
# Test: qHTS for PTHR1 Agonists: Primary Screen; further: nearly all actives have a fitted effect of over 55% in size
# Settings: HEK293 GP2 PTHR1 cells, GloSensor cAMP luminescence, 1 h; activation: at 115 µM (top of the series) unless noted; series mostly up to 115 µM
# Procedure, shortened: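 HEK-293-derived GP2 cells expressing PTHR1 and a GloSensor cAMP reporter, 3,000/well, plated overnight, given luciferin plus IBMX (each 0.5 mM as added) for 1 h at 37 °C, then compound for 1 h at 37 °C. Luminescence was read after 15 min at room temperature.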
# Potency means the concentration at half of the fitted maximal effect.
SMILES,Potency,activation,outcome
CCOC(=O)c1c(NC(=O)Cc2coc3cc(C)cc(C)c23)sc2c1CCC2,"inconclusive: 100 µM [activator, partial curve, poor fit]",–,–
CCOC(=O)c1ccccc1NC(=O)c1sc2nc3n(c(=O)c2c1C)CCCCC3,"inconclusive: 44.7 µM [activator, partial curve]",–,–
COc1cccc(NC(=O)c2nc(SC)ncc2Cl)c1,–,inactive: -12.5%,–
CCCCOc1ccc(C2c3c(oc4ccc(C)cc4c3=O)C(=O)N2CCCN(C)C)cc1OCC (stereo not given),"inconclusive: 158 µM [activator, single point]",–,–
COCCn1c(C)cc(C(=O)COC(=O)CNC(=O)c2ccco2)c1C,"inconclusive: 56.2 µM [activator, single point]",–,–
CC(/C=N/NC(=O)c1cc(-c2ccc(Cl)cc2)nc2ccccc12)=C\c1ccco1,"inconclusive: 14.1 µM [activator, partial curve]",–,–
C=CCOC(=O)C1C(=O)CC(C)(O)C(C(=O)OCC=C)C1c1ccc(N(C)C)cc1 (stereo not given),–,inconclusive: 30.9% [activator],–
CC(C)COc1cccc(C(=O)Nc2ccc(S(=O)(=O)N3CCOCC3)cc2)c1,–,inactive: 15% [at 57.5 µM],–
O=C(O)c1cc(S(=O)(=O)NCCN2CCNC2=O)ccc1O,"inconclusive: 70.8 µM [activator, partial curve, poor fit]",–,–
CCCCC[C@@H](C)N1C[C@@H](COCc2ccccc2)Oc2cc(N3CCC[C@H]3CO)ccc2S1(=O)=O,–,inactive: -29.2%,–
CCOc1ccc(Nc2ncnc3c2c(-c2ccccc2)cn3-c2cccc(C)c2)cc1,"inconclusive: 141 µM [activator, single point]",–,–
COc1ccc(-c2coc3c(C(=O)NCc4ccco4)cccc23)c(C)c1,–,inactive: -44.1%,–
COc1ccc(-n2c(SCC(=O)NCc3ccc(Cl)cc3)nc3ccsc3c2=O)cc1,–,inconclusive: -50.4% [activator],–
CCN(CC(=O)NCc1cccs1)CC(=O)Nc1cccc(S(N)(=O)=O)c1,"inconclusive: 1.78 µM [activator, full curve, poor fit]",–,–
COCCNC(=O)CCC(=O)NNc1nc2ccccc2c2nc(C)nn12,"inconclusive: 44.7 µM [activator, partial curve, poor fit]",–,–
COc1ccc(-c2ccc3c(c2)c(C#Cc2ccsc2)c(-c2cc(OC)cc(OC)c2)n3C)cc1,"inconclusive: 141 µM [activator, single point]",–,–
CC(=O)Nc1nnc(CSCc2ccc(F)cc2)s1,–,–,inactive
Cc1ccc(C)c(CSc2nc(-c3ccccc3F)nc3c2Cc2c(CO)cnc(C)c2O3)c1,–,inconclusive: 41.1% [activator],–
Cc1nnc(N/N=C/c2cc([N+](=O)[O-])c(N3CCC(C)CC3)cc2N2CCC(C)CC2)n1N,active: 28.2 µM,–,–
Oc1ccc(C[C@@H]2CNCCN2CCc2cccc3ccccc23)cc1,–,inconclusive: 36.2% [activator],–
CCN(CC)c1ccc2nc3ccccc3[n+](CC)c2c1,–,inactive: -31.2%,–
COc1ccc(N2CCN(c3oc(Cc4cccc5ccccc45)nc3C#N)CC2)cc1,"inconclusive: 0.794 µM [activator, partial curve, poor fit]",–,–
COc1ccc(C(=O)N/N=C(\C)CC(=O)NC2CCCCC2)c(OC)c1,"inconclusive: 89.1 µM [activator, partial curve, poor fit]",–,–
Cc1ccnc(NC(=O)c2cccc3ccccc23)c1,–,inconclusive: 48.7% [activator],–

SMILES,Potency,activation,outcome
CCS(=O)(=O)c1ccc(C(=O)Nc2ccccc2OC)c(Cl)c1Cl,"inconclusive: 28.2 µM [activator, single point]",–,–
CCOc1ccc(Nc2oc(-c3ccc(COc4ccc(OC)cc4)o3)nc2C#N)cc1,–,inactive: -22.1%,–
COCC(C)NC(=O)C1CC(=O)N(c2ccc(C)cc2)C1 (stereo not given),"inconclusive: 28.2 µM [activator, partial curve, poor fit]",–,–
O=C(NCC1CCCO1)c1cccc2c1C(=O)c1ccc(N3CCC(Cc4ccccc4)CC3)cc1S2(=O)=O (stereo not given),–,inactive: -33.9%,–
O=C(CCc1c[nH]c2ccccc12)NCCOc1ccccc1,"inconclusive: 141 µM [activator, single point]",–,–
CCCNC(=O)c1ccc(N2CCC3(CC2)CC(c2ccccc2)=NO3)c(NC(=O)c2cccc(C)c2)c1,–,inconclusive: -82.9% [activator],–
CC(=O)Nc1cccc(C(=O)Nc2cc(C(F)(F)F)ccc2-n2cncn2)c1,–,–,inactive
CC(C)(C)NC(=O)C1N(c2cccnc2)C(=O)C2C(C(=O)Nc3ccccc3)C3(C)C=CC21O3 (stereo not given),–,inconclusive: 40% [activator],–
CNCCCCOc1ccccc1-c1ccccc1,–,inconclusive: 34.3% [activator],–
O=[N+]([O-])c1ccc(O)c(C=Nc2ccc3c(c2)OCCO3)c1,–,inactive: -29.3%,–
CCOC(=O)c1sc(NC(=S)NC(=O)C2CCCC2)cc1C,–,inactive: -29.9%,–
CC(C)NC(=O)c1ccccc1NC(=O)Cc1ccc(Cl)cc1,"inconclusive: 39.8 µM [activator, partial curve, poor fit]",–,–
CC1(C)OC(=O)C(=NNc2ccccc2)C(=O)O1,"inconclusive: 141 µM [activator, single point]",–,–
O=C(O)c1ccccc1N1C(=O)C2C3CCC(C3)C2C1=O (stereo not given),–,inconclusive: -7.58% [activator],–
COc1cc(CNCc2ccc(C(=O)O)cc2)ccc1OCc1ccc(F)cc1,"inconclusive: 126 µM [activator, single point]",–,–
COc1ccc(C(=O)NCCc2ccc(S(N)(=O)=O)cc2)cc1OC,"inconclusive: 3.98 µM [activator, partial curve]",–,–
Cc1onc(-c2ccccc2Cl)c1C(=O)NCC1CCCO1 (stereo not given),–,inactive: 4.76%,–
Cc1nc2sc(C(c3ccc(Cl)cc3)N3CC(C)OC(C)C3)c(O)n2n1 (stereo not given),–,inconclusive: 32.1% [activator] [at 57.5 µM],–
O=C(NC(=S)NCCO)c1cn(-c2ccccc2)nc1-c1ccccc1,–,inactive: -0.497%,–
O=C(COC(=O)c1ccco1)NCc1ccccc1Cl,"inconclusive: 12.6 µM [activator, partial curve]",–,–
Cn1nccc1C(=O)OCC(=O)Nc1nc(-c2ccccc2)cs1,"inconclusive: 39.8 µM [activator, single point]",–,–
O=C(Nc1ccnn1C1CCN(C/C=C/c2ccc(F)cc2)CC1)C1CCCC1,"inconclusive: 100 µM [activator, single point]",–,–
CCc1ccccc1NC(=O)N1CCOc2ccccc21,"inconclusive: 15.8 µM [activator, partial curve]",–,–
CCCn1c2ccccc2c2cnn(CC(=O)Nc3cc(C)c(Cl)cc3OC)c(=O)c21,"inconclusive: 79.4 µM [activator, partial curve, poor fit]",–,–

# A draw from above in order of formula weight, ascending.
SMILES,Potency,activation,outcome
COCCn1c(C)cc(C(=O)COC(=O)CNC(=O)c2ccco2)c1C,"inconclusive: 56.2 µM [activator, single point]",–,–
CC(=O)Nc1cccc(C(=O)Nc2cc(C(F)(F)F)ccc2-n2cncn2)c1,–,–,inactive
CC(/C=N/NC(=O)c1cc(-c2ccc(Cl)cc2)nc2ccccc12)=C\c1ccco1,"inconclusive: 14.1 µM [activator, partial curve]",–,–
CCCn1c2ccccc2c2cnn(CC(=O)Nc3cc(C)c(Cl)cc3OC)c(=O)c21,"inconclusive: 79.4 µM [activator, partial curve, poor fit]",–,–
CCCCC[C@@H](C)N1C[C@@H](COCc2ccccc2)Oc2cc(N3CCC[C@H]3CO)ccc2S1(=O)=O,–,inactive: -29.2%,–

# Following part.

SMILES,Potency,activation,outcome
COc1ccc(C(=O)C2CCCN(Cc3ccc4nonc4c3)C2)cc1OC (stereo not given),–,inactive: -13.2%,–
c1ccc2c3c(c(CN4CCCC4)cc2c1)COC3,–,inconclusive: 34% [activator],–
COC(=O)c1ccc(NC(=O)CCN2CCN(Cc3ccccc3)CC2)cc1,"inconclusive: 1.58 µM [activator, full curve, poor fit]",–,–
CCN(CC)c1ccc(C=NNc2ccc([N+](=O)[O-])cn2)cc1,–,–,inactive
CSc1cccc(NC(=O)CN(c2cccc(C)c2)S(C)(=O)=O)c1,–,inconclusive: 34.1% [activator],–
O=C(Nc1ccccc1N1CCN(C(=O)c2ccccc2)CC1)c1cccc(Cl)c1,–,–,inactive
CCC1CN(C(=O)Nc2ccccc2F)c2cc(C)ccc2O1 (stereo not given),–,inactive: -14.7%,–
COc1ccc(CNC(=O)CCc2nnc3ccc(N4CCC5(CC4)OCCO5)nn23)cc1,–,inconclusive: -71.3% [activator],–
CCc1cc2c(=O)[nH]c(-c3ccccn3)nc2s1,–,–,inactive
COc1ccc(N2CCN(c3nc(C)c(C)c(=O)[nH]3)CC2)cc1,"inconclusive: 112 µM [activator, single point]",–,–
CC(C)CN(C(=O)c1ccc(=O)n(C)n1)c1nc2ccccc2s1,"inconclusive: 2 µM [activator, full curve, poor fit]",–,–
COCCCNC(=S)NC1CC2CCC(C1)N2Cc1ccccc1 (stereo not given),"inconclusive: 70.8 µM [activator, single point]",–,–
CC1(C)Cc2c(sc(N)c2C#N)C(C)(C)N1,"inconclusive: 39.8 µM [activator, partial curve, poor fit]",–,–
CCOc1ccc(NC(=O)N2CCC(CN3CCCCCC3)CC2)cc1,"inconclusive: 3.98 µM [activator, full curve, poor fit]",–,–
O=C(CSc1nc2ccc(Cl)cc2[nH]1)N1CCN(C(=O)c2ccco2)CC1,–,inactive: -18.2%,–
Cc1ccc(C(=O)N/N=C\c2ccc(-c3ccc(Cl)c(Cl)c3)o2)cn1,–,inconclusive: -70.4% [activator],–
CN(C(=O)CC1C(=O)NCCN1Cc1ccc(F)cc1)C1CCOCC1 (stereo not given),"inconclusive: 22.4 µM [activator, partial curve, poor fit]",–,–
COCCn1c(C)cc(O)c(C(c2ccccc2)N2CCN(CCO)CC2)c1=O (stereo not given),–,inconclusive: 46% [activator],–
COc1ccccc1Nc1nc(N)nc(CSC(=S)N2CC(C)CC(C)C2)n1 (stereo not given),–,–,inactive
CCN(N=O)[C@@H](Cc1ccccc1)CN(N=O)[C@@H](Cc1ccccc1)CN(C)N=O,"inconclusive: 100 µM [activator, partial curve, poor fit]",–,–
CC(=O)Nc1cccc(NC(=O)c2cc3ccccc3o2)c1,–,inactive: -1.81%,–
COc1cc(NS(=O)(=O)c2ccc3c(c2)CC(=O)N3)cc(OC)c1OC,"inconclusive: 31.6 µM [activator, single point]",–,–
